Results are given in words; binding and its absence hold for the method and conditions named. In cells and extracts the contact can be indirect. Binding calls can cover weak binding; strength is not graded here. For part of these data: Where a sequence is shown, tags or fusion partners need not be part of it. Each block holds one substance with its values, some of them ahead of it.
Key:
1.1C-Tmem203 [1] = biological target: T1, 1.1C-Tmem203 (UniProt Q8R235); experiment: split reporter; Renilla fragment PCA (1.1 on TMEM203, 2.1 on STING) in HEK293T cells with an increasing dose of STIM1 expression vector; relative luciferase activity 24 h posttransfection
T1 sequence: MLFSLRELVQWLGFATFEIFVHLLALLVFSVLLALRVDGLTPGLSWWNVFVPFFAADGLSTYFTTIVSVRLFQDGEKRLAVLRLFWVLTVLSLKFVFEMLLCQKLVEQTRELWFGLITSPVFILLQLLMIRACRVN

[2] = biological target: T2, TMEM203 V51X in the Renilla reporter system (UniProt Q8R235); experiment: split reporter; Renilla fragment PCA (NanoBit 1.1 small and 2.1 large fragments), HEK293T cells cotransfected, Nano-Glo live cell luciferase assay 24 h posttransfection; also after DMXAA (50 µg/mL; association enhanced) or 2′3′-cGAMP (10 µg/mL; complex reduced with time)
T2 sequence: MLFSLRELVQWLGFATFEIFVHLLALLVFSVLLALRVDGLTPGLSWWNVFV

1.1C-Tmem203 [3] = biological target: T1, 1.1C-Tmem203; experiment: as above
Flag-Tmem203 = biological target: T3, Flag-Tmem203 (UniProt Q8R235); experiment: co-IP; HEK293T cells transfected with the tagged constructs; complexes immunoprecipitated with anti-FLAG-coated beads and blotted for Myc or HA and FLAG
T3 sequence: T1 sequence

[4] = biological target: T4, TMEM203 with a C-terminal Venus PCA tag (UniProt Q8R235); experiment: split reporter; Venus YFP fragment complementation assay (PCA; V1 and V2 fragments), HEK293T cells cotransfected, Venus fluorescence detected by flow cytometry (mean fluorescence intensity)
T4 sequence: T1 sequence

[5] = biological target: T5, Tmem203 tagged at its N terminus with the V1 fragment of Venus yellow fluorescent protein (UniProt Q8R235); experiment: split reporter; Venus YFP fragment complementation assay (PCA; V1 and V2 fragments), HeLa cells cotransfected, Venus fluorescence visualized by microscopy
T5 sequence: T1 sequence

[6] = biological target: T5, Tmem203 tagged at its N terminus with the V1 fragment of Venus yellow fluorescent protein; experiment: split reporter; Venus YFP fragment complementation assay (PCA; V1 and V2 fragments), HEK293T cells cotransfected, Venus fluorescence detected by flow cytometry (mean fluorescence intensity)
V2-tagged Tmem203 [7] = biological target: T6, V2-tagged Tmem203 (UniProt Q8R235); experiment: as above
T6 sequence: T1 sequence

V2-tagged Tmem203 [8] = biological target: T6, V2-tagged Tmem203; experiment: split reporter; Venus YFP fragment complementation assay (PCA; V1 and V2 fragments), HeLa cells cotransfected, Venus fluorescence visualized by microscopy
V2_V51X-Tmem203 = biological target: T7, V2_V51X-Tmem203 (UniProt Q8R235); experiment: as above
T7 sequence: T2 sequence

binding (1.1C-Tmem203 [1]): binds
binding [2]: binds
binding (1.1C-Tmem203 [3]): binds
Substance: 2.1N-Sting

binding (Flag-Tmem203): binds
Substance: HA-Sting WT

binding (Flag-Tmem203): binds weakly
Substance: HA-Sting ΔTM (domain or fragment)

binding [4]: binds
Substance: STING with a C-terminal Venus PCA tag

binding [5]: binds
binding [6]: binds
Substance: Sting tagged at its N terminus with the V2 Venus fragment

binding (V2-tagged Tmem203 [8]): binds
binding (V2_V51X-Tmem203): binds
binding (V2-tagged Tmem203 [7]): binds
Substance: V1_Sting WT

The remaining lines, values behind:

Substance: HA-Sting ΔCBD (domain or fragment)
binding (Flag-Tmem203): binds

Substance: HA-Sting ΔCTT (domain or fragment)
binding (Flag-Tmem203): binds

Substance: Myc-Sting
binding (Flag-Tmem203): binds

Substance: V1 Sting ΔCTT (344A truncation) (domain or fragment)
binding (V2-tagged Tmem203 [7]): binds
